Data source: PubChem BioAssay AID504784 (Drosophila RNAi Screening Center, 2011)
The deposit covers about 17,000 reagents; below is an unselected part of those with a known target gene and a result. 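Each column is one replicate's B-score; the combined score over replicates was not deposited, so single values may mislead.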 Names joined by + are all predicted targets of the reagent. Not all columns of the deposit are shown.

Test: 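Fly genes whose silencing alters how much lipid cells keep in droplets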 (primary screen)
System: Drosophila Kc167 embryonic cells
Knock-down reagent: long dsRNA against Drosophila genes, about 250 ng dsRNA per well
Duration: 4 days
Conditions: cells fed 400 µM oleic acid bound to BSA
Measured: 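Cells imaged and segmented; ratio of lipid droplet area to nuclear area, log-transformed, then normalised as a B-score over the screen; higher means more stored lipid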
Reading the numbers: droplet/nuclear area B-score: higher = more stored lipid (overstorage)

Depletion of Amy-d + Amy-p [DRSC21242] gave: droplet/nuclear area B-score, replicate 1 = 0.322. Knock-down of CG32115 [DRSC22607] gave: droplet/nuclear area B-score, replicate 1 = -0.0411. Against CAH16 (Carbonic anhydrase 16) [DRSC15371], the values are droplet/nuclear area B-score, replicate 1 = -0.277. CG11590 [DRSC19411] gave droplet/nuclear area B-score, replicate 1 = 0.881. Against CG31064 [DRSC14756] the deposit lists droplet/nuclear area B-score, replicate 1 = 0.295. CG31064 [DRSC15941] scored droplet/nuclear area B-score, replicate 1 = -3.57.

CG31064 [DRSC15942] scored droplet/nuclear area B-score, replicate 1 = -1.97. CG31064 [DRSC15943] showed droplet/nuclear area B-score, replicate 1 = -0.542. CG14565 [DRSC11726] showed droplet/nuclear area B-score, replicate 1 = -0.0802. After knock-down of BCL7-like [DRSC17729] the results were droplet/nuclear area B-score, replicate 1 = -0.234. Silencing of slo (slowpoke) [DRSC17057] resulted in: droplet/nuclear area B-score, replicate 1 = 2.67. Depletion of alpha-Est3 (alpha-Esterase-3) [DRSC12615] gave: droplet/nuclear area B-score, replicate 1 = -2.89.

Against Lip1 (Lipase 1) [DRSC03364], the entry reads droplet/nuclear area B-score, replicate 1 = 0.457. Knock-down of NT5E-2 (Ecto-5'-nucleotidase 2) [DRSC06893] gave: droplet/nuclear area B-score, replicate 1 = -0.134. Knock-down of dbo (diablo) [DRSC11339] gave: droplet/nuclear area B-score, replicate 1 = -0.937. With knock-down of NimA (Nimrod A) [DRSC01353] the results were droplet/nuclear area B-score, replicate 1 = 1.76. NimA (Nimrod A) [DRSC22170] scored droplet/nuclear area B-score, replicate 1 = -0.508. For mkg-p + Tpt [DRSC10777], the entry reads droplet/nuclear area B-score, replicate 1 = -0.267.

Silencing of CG9281 [DRSC20179] gave: droplet/nuclear area B-score, replicate 1 = -0.403. For CG17024 (retired record) [DRSC02562], the entry reads droplet/nuclear area B-score, replicate 1 = 0.349. Against TrissinR (Trissin receptor) [DRSC02334], the entry reads droplet/nuclear area B-score, replicate 1 = 1.09. TrissinR (Trissin receptor) [DRSC02335] showed droplet/nuclear area B-score, replicate 1 = 0.183. TrissinR (Trissin receptor) [DRSC02336] scored droplet/nuclear area B-score, replicate 1 = -1.13. After knock-down of dmt (dalmatian) [DRSC16932], the screen gave droplet/nuclear area B-score, replicate 1 = -0.0538.

For Vha44 (Vacuolar H[+] ATPase 44kD subunit) [DRSC07572] the deposit lists droplet/nuclear area B-score, replicate 1 = -5.07. Silencing of Vha44 (Vacuolar H[+] ATPase 44kD subunit) [DRSC07573] came out at: droplet/nuclear area B-score, replicate 1 = 0.0622. With knock-down of Mgat2 [DRSC16347], the screen gave droplet/nuclear area B-score, replicate 1 = -0.0109. With knock-down of CRAT (Carnitine O-Acetyl-Transferase) [DRSC12523], the screen gave droplet/nuclear area B-score, replicate 1 = -1.57. After knock-down of CtsL3 (Cathepsin L3) [DRSC12171] the results were droplet/nuclear area B-score, replicate 1 = -4.56. Depletion of CG17919 [DRSC12571] gave: droplet/nuclear area B-score, replicate 1 = -0.594.

With knock-down of Sk1 (Sphingosine kinase 1) [DRSC19774] the results were droplet/nuclear area B-score, replicate 1 = 0.896. Silencing of OstDelta (Oligosaccharide transferase Delta subunit) [DRSC06980] resulted in: droplet/nuclear area B-score, replicate 1 = -2.41. For CCAP (Crustacean cardioactive peptide) [DRSC15674] the deposit lists droplet/nuclear area B-score, replicate 1 = -3.09. CG10344 [DRSC04066] gave droplet/nuclear area B-score, replicate 1 = 0.274. For CG15390 [DRSC00404] the deposit lists droplet/nuclear area B-score, replicate 1 = 0.0298. Silencing of CG13675 [DRSC10034] came out at: droplet/nuclear area B-score, replicate 1 = -0.117.

CG13675 [DRSC23124] gave droplet/nuclear area B-score, replicate 1 = 1.1. With knock-down of CG32944 [DRSC12138], the screen gave droplet/nuclear area B-score, replicate 1 = 0.976. CG32944 [DRSC12341] showed droplet/nuclear area B-score, replicate 1 = 1.66. Against Edg78E (Ecdysone-dependent gene 78E) [DRSC11863] the deposit lists droplet/nuclear area B-score, replicate 1 = 0.65. For 4E-T (eIF4E-Transporter) [DRSC17201] the deposit lists droplet/nuclear area B-score, replicate 1 = -0.0411. After knock-down of 4E-T (eIF4E-Transporter) [DRSC17208], the record shows droplet/nuclear area B-score, replicate 1 = 2.12.

Depletion of CG17636 [DRSC20648] resulted in: droplet/nuclear area B-score, replicate 1 = -0.256. CG32812 [DRSC18478] scored droplet/nuclear area B-score, replicate 1 = 1.91. Depletion of CG5885 [DRSC02910] came out at: droplet/nuclear area B-score, replicate 1 = -0.574. For CG9581 [DRSC20695], the values are droplet/nuclear area B-score, replicate 1 = -2.57. CG9581 [DRSC22247] gave droplet/nuclear area B-score, replicate 1 = 0.00155. With knock-down of Capr (Caprin) [DRSC10346], the record shows droplet/nuclear area B-score, replicate 1 = -0.883.

With knock-down of lqfR (liquid facets-Related) [DRSC14703], the record shows droplet/nuclear area B-score, replicate 1 = 0.506. lqfR (liquid facets-Related) [DRSC14704] gave droplet/nuclear area B-score, replicate 1 = 0.269. For Osi4 (Osiris 4) [DRSC12134] the deposit lists droplet/nuclear area B-score, replicate 1 = -0.65.

Look-ups from the list:
Entry for CG17024 (retired record) [DRSC02562] in “droplet/nuclear area B-score, replicate 1”: 0.349
Vha44 (Vacuolar H[+] ATPase 44kD subunit) [DRSC07573], droplet/nuclear area B-score, replicate 1 = 0.0622
CG17919 [DRSC12571], droplet/nuclear area B-score, replicate 1: -0.594
Entry of TrissinR (Trissin receptor) [DRSC02335] under “droplet/nuclear area B-score, replicate 1”: 0.183
NimA (Nimrod A) [DRSC01353], droplet/nuclear area B-score, replicate 1 = 1.76
CG14565 [DRSC11726], droplet/nuclear area B-score, replicate 1: -0.0802
